Reference: PMC3422351 (PLoS ONE, 2012)

Assay: general procedure: Fmoc solid-phase peptide synthesis; Rink amide MBHA resin (100–200 mesh), loading 0.4–0.8 mmol/g; HBTU/DIPEA
Conditions: whole synthesis

Substance | isolated yield [%]
H-[ξGly(octyl)]YPWF-NH2 (SMILES CCCCCCCCC(N)C(=O)N[C@@H](Cc1ccc(O)cc1)C(=O)N1CCC[C@H]1C(=O)N[C@@H](Cc1c[nH]c2ccccc12)C(=O)N[C@@H](Cc1ccccc1)C(N)=O) | 43
H-[ξGly(octyl)][Dmt]PWF-NH2 (SMILES CCCCCCCCC(N)C(=O)N[C@@H](Cc1c(C)cc(O)cc1C)C(=O)N1CCC[C@H]1C(=O)N[C@@H](Cc1c[nH]c2ccccc12)C(=O)N[C@@H](Cc1ccccc1)C(N)=O) | 40
PEPTIDE1{Y.P.W.F.[am]}$$$$V2.0 | 84
PEPTIDE1{[Dmt].P.W.F.[am]}$$$$V2.0 | 57

Strings that start with PEPTIDE1 are HELM notation: dots part the residues, brackets hold end groups and non-standard residues. Square brackets hold non-standard residues; d marks the D form. ξ: configuration not given here. Dmt = Cc1cc(O)cc(C)c1C[C@H](N)C(=O)O; ξGly(octyl) = CCCCCCCCC(N)C(=O)O
